These are yes or no findings as the source states them, for the method shown. For part of these data: Binding seen in cells or lysates may run through a third protein. Some results given as binding are weak or reduced against the parent protein; the word gives no strength. Tags and fused reporters may be left off the sequences shown.
Legend:
[1] = biological target: T1, His-MIST-fl (poly-histidine tagged MIST full length, residues 1-443) (human) (UniProt Q7Z7G1); experiment: pull-down from Jurkat lysates on Talon beads, anti-Grb2 immunoblot
T1 sequence: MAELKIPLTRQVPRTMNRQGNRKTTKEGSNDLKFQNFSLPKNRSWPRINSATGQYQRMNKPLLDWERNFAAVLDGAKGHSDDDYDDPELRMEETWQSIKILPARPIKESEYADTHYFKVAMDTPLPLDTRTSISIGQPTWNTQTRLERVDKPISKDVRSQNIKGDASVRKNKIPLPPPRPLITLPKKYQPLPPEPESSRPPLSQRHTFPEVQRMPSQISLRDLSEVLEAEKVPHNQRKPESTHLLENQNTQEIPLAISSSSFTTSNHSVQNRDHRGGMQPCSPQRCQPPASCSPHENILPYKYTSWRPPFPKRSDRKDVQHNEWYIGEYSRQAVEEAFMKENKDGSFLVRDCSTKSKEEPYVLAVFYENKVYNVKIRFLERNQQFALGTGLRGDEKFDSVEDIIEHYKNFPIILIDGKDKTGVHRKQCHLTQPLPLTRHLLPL

Protein sequences, listed by entry. Tags and fused reporters are not part of them. Lines headed by an entry give the natural chain unless they say otherwise; changes in a name come on top.
UniProt P62993: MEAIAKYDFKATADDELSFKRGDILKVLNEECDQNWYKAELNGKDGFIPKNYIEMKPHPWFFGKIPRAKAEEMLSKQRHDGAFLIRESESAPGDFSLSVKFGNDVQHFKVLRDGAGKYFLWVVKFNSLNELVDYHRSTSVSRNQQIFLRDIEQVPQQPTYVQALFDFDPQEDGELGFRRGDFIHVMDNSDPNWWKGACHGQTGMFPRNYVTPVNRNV

[2] = biological target: T2, His-MIST-PR (poly-histidine tagged MIST proline-rich domain, residues 160-320) (human) (UniProt Q7Z7G1); experiment: as above
T2 sequence: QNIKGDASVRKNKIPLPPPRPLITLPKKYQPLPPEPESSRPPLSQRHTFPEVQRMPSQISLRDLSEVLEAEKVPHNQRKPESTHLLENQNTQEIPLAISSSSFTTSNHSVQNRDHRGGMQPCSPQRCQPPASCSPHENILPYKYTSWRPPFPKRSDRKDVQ

[3] = biological target: T2, His-MIST-PR (poly-histidine tagged MIST proline-rich domain, residues 160-320) (human); experiment: ELISA, His-MIST proteins coated at 4 µg/ml, GST fusion detected with anti-GST antiserum

binding [1] | binding [2] | binding [3] | Substance
binds | binds | – | Grb2 (adapter protein, from Jurkat T cell lysates) (from UniProt P62993 1-217)
– | – | binds | recombinant N-terminal SH3 domain of Grb2 (GST-SH3 fusion protein) (from UniProt P62993 1-58)

Reference: US20020155563A1
